Data reported in the supplement of paper PMC10338343.
± gives the standard deviation. The list shows a part of the results. The uncertainty is large for many entries.

Tested on: EfPiwi piRISC loaded with L1MC piRNA (26 nt)
Experiment: pre-steady-state target cleavage rate (min^-1); guide: L1MC piRNA 5'p-UAACUAAAUACUAUGCAAGCUGUAGG; MIWI and MILI are mouse PIWI proteins and EfPiwi is from a freshwater sponge; tags in brackets are library labels; higher = faster piRNA-guided slicing of the target
Conditions: auxiliary factor: 500 nM Ephydatia muelleri Gtsf1
Description: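 Cleave-'n-Seq: a library of target RNAs (target site in constant flanks) at […] was incubated with 1 nM active freshwater sponge Ephydatia fluviatilis Piwi piRISC (synthetic 5'-monophosphorylated piRNA guide) with or without 500 nM EmGtsf1 at 33 °C for 1 min to 16 h. Uncleaved targets were sequenced and the pooled three trials fitted to a burst-and-steady-state model to give the pre-steady-state cleavage rate (min^-1). Sequence is the target site only. Fits with R² ≤ 0 are excluded.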

Sequence | pre-steady-state target cleavage rate
UCCUGCUACAGCUUGCUAAGUAUUUACAAA | 0.000869 ± 0.0071
UCCUGGAACAGCUUGCAUAGUAUUUAAGUUA | 0.0138 ± 0.0052
UCCUGGAACAGCUUGCAUUGUAUAUAGUUA | 0.00303 ± 0.0036
UCCUGGAUGUGCUUAGCAUAGUAUUUAGUUA | 0.00497 ± 0.0028
UCCUGGAUGUCGAACGUUAGUAUUAAGAUA | 0.00022 ± 0.02
UCCUCCUACAGCUUCCAUAGUAAUUAGUUA | 0.00258 ± 0.0027
UCCUCCAACAGCUUGCAUAGUAUUUACUUA | 0.00475 ± 0.0037
UCCUGGAUGUGCUUGCAUACUAAUUAGUUA | 0.00146 ± 0.0026
UCCUGGUACACCUUGCAUAGUAUUUUGUUA | 0.00266 ± 0.0029
UCCUGGAUCAGCUUGCAUAGUAUUUAGUUUA | 0.0394 ± 0.011
UCCUGGAUCAGCUUUGCAUAGUAUUUAGUUA | 0.103 ± 0.023
UCCUGGAUGUCGAAGCUUAGUAUUUUGUUA | 0.00015 ± 0.026
UCCUGGAUCAGCUUGCAAUCUAUUUAGUAA | 0.000348 ± 0.011
UCCUGGAACAUGCUUGCAUAGUAUUUAGUUA | 0.0178 ± 0.0057
UCCUCGUACAGCUUGCAUAGUAUUUUGUUA | 0.007 ± 0.0031
UCCUGGAACUGCUUGCAUAGUUUUUAGUUA | 0.00498 ± 0.0026
UCCUGGAUGAGCUUGGUUAGUAUUUACAAA | 0.000268 ± 0.029
UCCUCCUACAGCUUCGUUAGUAUUUUCAAA | 0.000928 ± 0.0078
UCCUGGUACAGCUUGCAUAGAUAUUACAAA | 0.000405 ± 0.014
UCCUGGAUGUCGAUUGCAUAGUAUUUAGUUA | 0.00712 ± 0.0027
UCCUGGAUGAGCUUGGAUACUAUUUAGUUA | 0.00245 ± 0.0032
UCCUGGAUGAGCUUGCAUACAAUUUAGUUA | 0.000752 ± 0.0044
UCCUGGAUCAGCUUGAUAGUAUUUAGUUA | 0.00188 ± 0.0045

Same assay, conditions: auxiliary factor: none (no Gtsf1)

Sequence | pre-steady-state target cleavage rate
UCCUGCUACAGCUUGCUAAGUAUUUACAAA | 0.000566 ± 0.0095
UCCUGGAACAGCUUGCAUAGUAUUUAAGUUA | 0.00182 ± 0.0071
UCCUGGAACAGCUUGCAUUGUAUAUAGUUA | 0.000648 ± 0.014
UCCUGGAUGUGCUUAGCAUAGUAUUUAGUUA | 0.00103 ± 0.0087
UCCUCCUACAGCUUCCAUAGUAAUUAGUUA | 0.000322 ± 0.015
UCCUCCAACAGCUUGCAUAGUAUUUACUUA | 0.000443 ± 0.011
UCCUGGAUGUGCUUGCAUACUAAUUAGUUA | 0.000306 ± 0.023
UCCUGGUACACCUUGCAUAGUAUUUUGUUA | 0.000462 ± 0.027
UCCUGGAACAUGCUUGCAUAGUAUUUAGUUA | 0.00169 ± 0.0067
UCCUGGAACUGCUUGCAUAGUUUUUAGUUA | 0.000419 ± 0.022
UCCUGGAUGAGCUUGGUUAGUAUUUACAAA | 0.000733 ± 0.012
UCCUCCUACAGCUUCGUUAGUAUUUUCAAA | 0.000224 ± 0.025
UCCUGGUACAGCUUGCAUAGAUAUUACAAA | 0.000362 ± 0.019
UCCUGGAUGAGCUUGGAUACUAUUUAGUUA | 0.000352 ± 0.027
UCCUGGAACAGCUUGCAAAGUAUAUAGUUA | 0.000278 ± 0.035
UCCUCCAUGAGCUUGCAUAGUAUUUAGAAA | 0.000204 ± 0.023
UCCUGGAUGAGCUUGCAUACAAUUUAGUUA | 0.000118 ± 0.06
